In PMC12431657, “Discovery and mechanistic insights of dibenzoylmethane as a broad spectrum inhibitor of coronavirus” (PLOS Pathogens, 2025):
Counter-ions that a name gives are not always drawn. Like-named read-outs stand apart in the source and are kept apart here. The campaign covered roughly 3,300 compounds. About 95 (3%) showed an effect of 50% or more. The list shows a part of the results.

Test system: HCoV-229E
Set-up: species or system Huh-7; HTS, protection from HCoV-229E induced cell death, luminescent cell viability (CellCounting-Lite 2.0), inhibition rate
Conditions: 24 h post infection, 1 h compound pre-incubation, 10 µM, inhibitor

Row | SMILES | 229E Inhibition rate | 229E Inhibition rate (229E Inhibition rate, 24 h)
1 | CCCC(C)C(=O)O (stereo not shown) [2-Methylvaleric acid] | 8.1% | –
2 | O=C(O)C(=O)CO [Hydroxypyruvic acid] | 11.1% | –
3 | CNCC(=O)O [Sarcosine] | 12.1% | –
4 | Cc1ccc(C(=O)O)cc1 [p-Toluic acid] | 6.6% | –
5 | CC(=O)O[C@@H]1C[C@@]23C[C@@]24CC[C@H](O[C@@H]2OC[C@H](O)[C@H](O)[C@H]2O)C(C)(C)[C@@H]4CC[C@H]3[C@]2(C)[C@@H](O)[C@]34O[C@H](C[C@@H](C)[C@@H]3[C@@]12C)[C@@H](C(C)(C)O)O4 [Cimiracemoside D] | 22% | –
6 | COc1cc(O)c2c(=O)c(OC)c(-c3ccc(O)c(OC)c3)oc2c1 [Pachypodol] | 0% | –
7 | O=C1c2cccc(O)c2C(=O)c2c(O)cccc21 [Danthron] | 0% | –
8 | O=C1C[C@@H](c2ccc(O)c(O)c2)Oc2c1ccc(O[C@@H]1O[C@H](CO)[C@@H](O)[C@H](O)[C@H]1O)c2O [Flavanomarein] | 35.1% | –
9 | COc1ccc2c(c1)O[C@H]1c3ccc(O)cc3OC[C@@H]21 [Medicarpin] | 12.1% | –
10 | COc1ccc2cc1Oc1ccc(cc1)C[C@H]1c3cc(c(OC)cc3CCN1C)Oc1c(O)c(OC)cc3c1[C@H](C2)N(C)CC3 [Fangchinoline] | 11.1% | –
11 | CCOC(N)=O [Urethane] | 9.7% | –
12 | OC[C@H]1O[C@@H](Oc2cc(O)cc(/C=C/c3ccc(O[C@@H]4O[C@H](CO)[C@@H](O)[C@H](O)[C@H]4O)cc3O)c2)[C@H](O)[C@@H](O)[C@@H]1O [Mulberroside A] | 4.6% | –
13 | COc1ccc2c3c1O[C@H]1C[C@@H](O)C=C[C@@]31CCN(C)C2 [Galanthamine] | – | 37.6%
14 | N[C@@H](Cc1cc(I)c(O)c(I)c1)C(=O)O [(S)-2-Amino-3-(4-hydroxy-3,5-diiodophenyl)propanoic acid dihydrate] | 17.5% | –
15 | CN1C(C(=O)Nc2ccccn2)=C(O)c2sc(Cl)cc2S1(=O)=O [Lornoxicam] | 9.3% | –
16 | C[C@H](O)C(=O)N[C@@H](Cc1ccccc1)C(=O)O [N-Lactoyl-Phenylalanine] | 15.1% | –
17 | C[C@H](CC[C@@H](O)C(C)(C)O)[C@H]1CC[C@@]2(C)[C@@H]3CC=C4[C@@H](CC[C@H](O)C4(C)C)[C@]3(C)C(=O)C[C@]12C [Bryodulcosigenin] | 12.5% | –
18 | COc1ccc(-c2cc(=O)c3c(OC)c(OC)c(OC)c(OC)c3o2)cc1 [Tangeretin] | 9% | –
19 | O=C1Nc2ccccc2C1=O [Isatin] | 0% | –
20 | C=C[C@]12CN(C)[C@@H]3[C@H]4CO[C@H](C[C@H]41)[C@]1(C(=O)N(OC)c4ccccc41)[C@@H]32 [Gelsevirine] | 12.5% | –

Rewritten as labelled records: part of the list above
COc1cc(O)c2c(=O)c(OC)c(-c3ccc(O)c(OC)c3)oc2c1 [Pachypodol]
  229E Inhibition rate: 0%
O=C1c2cccc(O)c2C(=O)c2c(O)cccc21 [Danthron]
  229E Inhibition rate: 0%
O=C1C[C@@H](c2ccc(O)c(O)c2)Oc2c1ccc(O[C@@H]1O[C@H](CO)[C@@H](O)[C@H](O)[C@H]1O)c2O [Flavanomarein]
  229E Inhibition rate: 35.1%
COc1ccc2c(c1)O[C@H]1c3ccc(O)cc3OC[C@@H]21 [Medicarpin]
  229E Inhibition rate: 12.1%

(continued)

Row | SMILES | 229E Inhibition rate | 229E Inhibition rate (229E Inhibition rate, 24 h)
21 | Oc1cc(O)c2c(c1)O[C@H](c1ccc(O)c(O)c1)[C@@H](O)C2 [Catechin] | – | 7.2%
22 | CS(C)(=O)=O [Dimethyl sulfone] | 9.5% | –
23 | COc1cc2c(c(OC)c1OC)-c1c(cc(OC)c(OC)c1OC)C[C@](C)(O)[C@@H](C)C2 [Schisandrin] | 5.1% | –
24 | O=C(O)c1c(O)cccc1O [2,6-Dihydroxybenzoic acid] | 10.3% | –
25 | O=C(O)[C@H]1O[C@@H](Oc2cc(O)c3c(=O)cc(-c4ccc(O)cc4)oc3c2)[C@H](O)[C@@H](O)[C@@H]1O [Apigenin-7-glucuronide] | 0% | –
26 | NCCc1ccc(O)cc1 [Tyramine (hydrochloride)] | – | 9%
27 | CC1(C)C=Cc2c(ccc3c2OC[C@@H](c2ccc(O)cc2O)C3)O1 [Glabridin] | 54.3% | –
28 | O=c1cc[nH]c(=O)[nH]1 [Uracil] | 4.8% | –
29 | C[C@@H]1CC[C@@]2(OC1)O[C@H]1C[C@H]3[C@@H]4CC=C5C[C@@H](O[C@@H]6O[C@H](CO)[C@@H](O[C@@H]7O[C@@H](C)[C@H](O)[C@@H](O)[C@H]7O)[C@H](O)[C@H]6O[C@@H]6O[C@@H](C)[C@H](O)[C@@H](O)[C@H]6O)CC[C@]5(C)[C@H]4CC[C@]3(C)[C@H]1[C@@H]2C [Dioscin] | 4.4% | –
30 | COc1cc(-c2coc3cc4c(c(O)c3c2=O)OCO4)cc(O)c1OC [Dichotomitin] | 53.3% | –
31 | CCc1cccc(C)c1O [2-Ethyl-6-methylphenol] | 20.7% | –
32 | COc1ccc(-c2cc(=O)c3c(OC)c(OC)c(OC)c(OC)c3o2)cc1OC [Nobiletin] | 24.9% | –
33 | COc1ccc2cc3[n+](cc2c1OC)CCc1cc2c(cc1-3)OCO2 [Berberine (chloride hydrate)] | – | 34%
34 | c1cc2c(c3c1CC1c4cc5c(cc4CCN1C3)OCO5)OCO2 (racemic) [(±)-Stylopine] | 46.8% | –
35 | COc1cc2oc(-c3ccc(O)c(O)c3)cc(=O)c2c(O)c1OC [Cirsiliol] | 27.5% | –
36 | O=C(O)c1ccc(=O)oc1 [Coumalic acid] | 13.5% | –
37 | C/C=C(/C)C(=O)O[C@H]1[C@H](OC(C)=O)[C@]2(CO)[C@H](O)C[C@]3(C)C(=CC[C@@H]4[C@@]5(C)CC[C@H](O[C@@H]6O[C@H](C(=O)O)[C@@H](O[C@@H]7O[C@H](CO)[C@@H](O)[C@H](O)[C@H]7O)[C@H](O)[C@H]6O[C@@H]6O[C@H](CO)[C@@H](O)[C@H](O)[C@H]6O)[C@](C)(CO)[C@@H]5CC[C@]43C)[C@@H]2CC1(C)C [Escin IB] | 8% | –
38 | CC(C)=CCc1cc2c(cc1O)O[C@H](c1ccc(O)cc1)CC2=O [Bavachin] | 16.7% | –
39 | O=Cc1ccccc1C(=O)O [2-Carboxybenzaldehyde] | 7.1% | –
40 | CCC[C@@H]1C[C@@H](C(=O)N[C@@H]([C@H]2O[C@H](SC)[C@H](O)[C@@H](O)[C@H]2O)[C@@H](C)O)N(C)C1 [Lincomycin (hydrochloride monohydrate)] | 16.8% | –

Row | SMILES | 229E Inhibition rate | 229E Inhibition rate (229E Inhibition rate, 24 h)
41 | CCCCCCCCOC(C)=O [Octyl acetate] | 9.9% | –
42 | COc1ccc(/C=C/c2cc(O)cc(O[C@@H]3O[C@H](CO)[C@@H](O)[C@H](O)[C@H]3O)c2)cc1O [Rhapontin] | 18.3% | –
43 | C=C[C@H]1[C@H](O[C@@H]2O[C@H](CO)[C@@H](O)[C@H](O)[C@H]2O)OC=C(C(=O)OC)[C@H]1CCOC(=O)c1cc(O)c(O)c(O)c1 [Cornuside] | 20.1% | –
44 | N[C@@H](Cc1ccc(O)c([N+](=O)[O-])c1)C(=O)O [3-Nitro-L-tyrosine] | 8% | –
45 | O=C(O)c1c[nH]c(=O)[nH]c1=O [2,4-Dihydroxypyrimidine-5-carboxylic Acid] | 0% | –
46 | CC(C)CCC[C@@H](C)[C@H]1CC[C@H]2[C@@H]3CC=C4C[C@@H](OS(=O)(=O)O)CC[C@]4(C)[C@H]3CC[C@]12C [Cholesteryl sulfate (sodium)] | 7.6% | –
47 | CC(C)[C@@H]1CC[C@@H](C)C[C@H]1O [Menthol] | – | 33.4%
48 | COc1cc(/C=C/C(=O)O[C@H]2[C@H](O)[C@@H](CO)O[C@@]2(CO)O[C@H]2O[C@H](COC(=O)c3ccc(O)cc3)[C@@H](O)[C@H](O)[C@H]2O)cc(OC)c1OC [Tenuifoliside A] | 0% | –
49 | CC1(C)CCC2(CO)C(=C3C=CC4C5(C)CCC(OC6OC(COC7OC(CO)C(O)C(O)C7O)C(OC7OC(CO)C(O)C(O)C7O)C(O)C6O)CC5C(C)(CO)CC4(C)C3(C)CC2O)C1 (stereo not shown) [Clinodiside A] | 8.8% | –
50 | C[C@H](CO[C@@H]1O[C@H](CO)[C@@H](O)[C@H](O)[C@H]1O)[C@H]1CC[C@@]2(CC[C@]3(C)[C@H](CC[C@@H]4[C@@]5(C)CC[C@H](O[C@@H]6O[C@H](CO)[C@@H](O)[C@H](O)[C@H]6O[C@@H]6O[C@H](CO)[C@@H](O)[C@H](O)[C@H]6O)[C@@](C)(CO)[C@@H]5CC[C@]43C)[C@H]2O)CO1 [Hosenkoside B] | 10.3% | –
51 | CC(=O)O[C@@H]1C[C@H](O)[C@@]23CO[C@@H](O)[C@]1(C)[C@@H]2C[C@@H](O)[C@]1(C)[C@@H]3C(=O)[C@H](OC(C)=O)[C@@]2(C)[C@H](c3ccoc3)C[C@H]3O[C@]321 [Toosendanin] | 23.4% | –
52 | O=C(O)c1cc(O)c2c(c1)C(=O)c1cccc(O[C@@H]3O[C@H](CO)[C@@H](O)[C@H](O)[C@H]3O)c1C2=O [Rhein 8-Glucoside] | 17.4% | –
53 | CC[C@H]1OC(=O)C[C@@H](O)[C@H](C)[C@@H](O[C@@H]2O[C@H](C)[C@@H](O[C@H]3C[C@@](C)(O)[C@@H](O)[C@H](C)O3)[C@H](N(C)C)[C@H]2O)[C@@H](CC=O)C[C@@H](C)C(=O)/C=C/C(C)=C/[C@@H]1CO[C@@H]1O[C@H](C)[C@@H](O)[C@@H](OC)[C@H]1OC [Tylosin (phosphate)] | – | 32.6%
54 | O=C(O)c1cccnc1 [Niacin] | 7.8% | –
55 | CC1(C)CC[C@]2(C(=O)O)CC[C@]3(C)C(=CC[C@@H]4[C@@]5(C)CC[C@H](O[C@@H]6O[C@H](C(=O)O)[C@@H](O)[C@H](O)[C@H]6O[C@@H]6O[C@H](CO)[C@@H](O)[C@H](O)[C@H]6O)C(C)(C)[C@@H]5CC[C@]43C)[C@@H]2C1 [Zingibroside R1] | 14.8% | –
56 | NCCc1c[nH]cn1 [Histamine] | – | 11%
57 | COc1cc(OC)c2c(=O)cc(-c3ccc(O)c(O)c3)oc2c1 [5,7-Dimethoxyluteolin] | 12.3% | –
58 | OC1OC[C@@H](O)[C@@H](O)[C@@H]1O (stereo partly drawn) [D-arabinose] | – | 22.9%
